# Reference: US20100029734A1, “METHODS FOR BREAST CANCER SCREENING AND TREATMENT” (Ore Pharmaceuticals Inc., priority 2008, published 2010)
# For at least one compound, name, drawing or mass did not settle the structure.
# What was measured:
# HCC1143 (ER− cell line) = experiment: RT-CES cell proliferation assay, HCC1143; format: cell-based, human; settings: AT1 receptor antagonist 5 μM + Ang II 500 nM, data not shown
# Method: (§1) Unless otherwise indicated, cell proliferation assays described in Examples 2-5 were performed using a Real-Time Cell Electronic Sensing (RT-CES™ 96X) instrument from ACEA Bioscience (San Diego, Calif.). This instrument utilizes an electronic readout (impedance) to non-invasively quantify adherent cell proliferation and viability in real time.
# (§2) Cells were seeded in 96-well microtiter plates containing microelectronic sensor arrays (96E plates; ACEA). Cells were maintained in RPMI 1640 (Invitrogen, Carlsbad, Calif.) supplemented with 10% fetal bovine serum (FBS) (Hyclone, Logan, Utah) and were cultured at 37° C. in a humidified atmosphere containing 5% CO2. For proliferation assays, cells were seeded (20,000 cells/well), allowed to attach and grown overnight in standard growth medium. Cells were then serum-starved for 8 hours prior to the proliferation assay in presence or absence of test compound(s). The proliferation response was continuously monitored by measuring the impedance change in each well for the indicated number of hours. Data are expressed as cell index (CI) change relative to time in culture, reflecting measured changes in electrical impedance. Each value shown is an average of 6 wells. […]
# T47D (ER+ cell line) = experiment: RT-CES cell proliferation assay, T47D; format: cell-based, human; settings: AT1 receptor antagonist 5 μM + Ang II 500 nM
# Method: as §1, §2
structure (smiles),measurement,setting,value
CCOc1nc2cccc(C(=O)O)c2n1Cc1ccc(-c2ccccc2-c2nnn[nH]2)cc1 [candesartan],effect on cell proliferation,HCC1143 (ER− cell line),No effects
same,inhibition of Ang II-induced growth / cell proliferation,T47D (ER+ cell line),significantly inhibited Ang II-induced growth
